The chains behind the UniProt entries cited, without tags or fusion partners. Where a name states a change or a piece, a line headed by the entry shows the natural chain unless it says otherwise.
UniProt Q01638: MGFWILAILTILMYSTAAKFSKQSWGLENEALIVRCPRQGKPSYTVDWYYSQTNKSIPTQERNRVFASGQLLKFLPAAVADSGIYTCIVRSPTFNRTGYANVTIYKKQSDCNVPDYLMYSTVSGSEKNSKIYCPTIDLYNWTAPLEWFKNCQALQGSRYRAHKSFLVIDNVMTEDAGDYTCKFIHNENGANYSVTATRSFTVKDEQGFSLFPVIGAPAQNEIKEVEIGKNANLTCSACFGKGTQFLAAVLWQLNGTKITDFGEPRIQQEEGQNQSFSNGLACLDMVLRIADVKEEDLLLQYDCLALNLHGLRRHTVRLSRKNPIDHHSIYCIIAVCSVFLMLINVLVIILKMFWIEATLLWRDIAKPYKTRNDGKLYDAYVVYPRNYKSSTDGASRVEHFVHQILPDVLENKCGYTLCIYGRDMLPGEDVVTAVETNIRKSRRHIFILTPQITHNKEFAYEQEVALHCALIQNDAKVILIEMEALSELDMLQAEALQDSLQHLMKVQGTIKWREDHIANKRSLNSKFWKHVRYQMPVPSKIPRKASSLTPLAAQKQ

The whole screen tested about 78,000 compounds, of which about 1,800 (2.3%) were called active. The inconclusive results got no clear call from the source; some entries with a clear call stand among them for comparison. Cut-off read from the data, not from the text of the source: active = inhibition above about 30%; inconclusive = mostly about 10% to 28%; inactive = weaker than that.
Each compound was assayed against Interleukin-1 receptor-like 1 (Homo sapiens) (UniProt Q01638) (assay: blocks human ST2 binding to IL-33, primary screen, biochemical, AlphaLISA (AID 1259354)). Conditions: AlphaLISA ST2-Fc/biotin-IL-33 interaction, 1 h; at 17 µM, stronger effect = higher value.
In the case of `O=[N+]([O-])c1ccc(-c2nc(NCC3CCCO3)c3ccccc3n2)cc1` (configuration not stated), the inhibition is reported as inconclusive: 29%.
In the case of `C=CCN1CC2(c3ccccc3)CN(CC=C)CC(c3ccccc3)(C1)C2=O`, the inhibition is reported as inconclusive: 27%.
In the case of `CC1CCCN(C(=O)C2CCCCC2C(=O)O)C1` (configuration not stated), the inhibition is reported as “inactive”.
`N#Cc1c(NC(=O)c2noc3c2CCCC3)sc2c1CCC2` was tested, and the inhibition was inconclusive: 16%.
`CC(C)c1cc(C(=O)N2CC(=O)N(Cc3cccnc3)CC(OCc3ccccc3)C2)n[nH]1` (configuration not stated) was tested, and the inhibition was inconclusive: 22%.
For `Cc1ccc(C)n1CCN1CCN(CC(=O)c2ccc3c(c2)OCO3)CC1`, the inhibition was inconclusive: 12%.
In the case of `COc1ccc(-n2nc3c(c2NC(=O)C(C)(C)C)CSC3)cc1`, the inhibition is reported as “inactive”.
In the case of `Cc1cccc(C)c1NC(=O)CN1CCN(CC(=O)Nc2c(C)cccc2C)CC1`, the inhibition is reported as “inactive”.
`Cn1cc(CN2CCCC2c2nccs2)c(-c2ccc3c(c2)OCCO3)n1` (configuration not stated) was tested, and the inhibition was inconclusive: 12%.
In the case of `CCOc1ccc(C2C(C(=O)OC3CCCCC3)=C(C)Nc3ncnn32)cc1` (configuration not stated), the inhibition is reported as “inactive”.
With `O=C(O)c1ccc2nc3c(cc2c1)CCS3` the inhibition was “inactive”.
In the case of `Cc1nn(-c2ccccc2)c2c1C(c1ccc(OC(C)C)cc1)C(C#N)=C(N)O2` (configuration not stated), the inhibition is reported as “inactive”.
For `O=C1Nc2ccc(Br)cc2/C1=C/c1cccc(Cl)c1`, the inhibition was inconclusive: 17%.
`Cc1nc2ccccc2c2c1C(=O)N(c1ccc3c(c1)OCO3)C2=O` was tested, and the inhibition was active: 51%.
With `Cc1ccc(C)c(NC(=O)c2cc3cc(Br)ccc3oc2=O)c1` the inhibition was inconclusive: 18%.
`CN1CCN(C)C2(CCN(C(=O)c3nn(C)c4ccccc34)CC2)C1` was tested, and the inhibition was “inactive”.
For `C[C@@]12CC3(S(=O)(=O)O)OC(O1)[C@]1(COC(=O)c4ccccc4)[C@H]3C[C@]21O[C@@H]1O[C@H](CO)[C@@H](O)[C@H](O)[C@H]1O`, the inhibition was inconclusive: 29%.
With `CCOc1ccc(-c2cn(-c3ccc(C)c(F)c3)c(=O)[nH]2)cc1` the inhibition was inconclusive: 13%.
In the case of `CCOC(=O)Cn1c(=O)n(-c2ccc(F)cc2)c2nc(-c3ccccc3OC(C)C)nc(C(N)=O)c21`, the inhibition is reported as “inactive”.
In the case of `COC(=O)c1cc(OC)cc(C(=O)N2CCCC3(CC2)CNC(=O)O3)c1` (configuration not stated), the inhibition is reported as inconclusive: 15%.
In the case of `CC(=O)OCC1OC(OC2COC(OC3COC(OC4C(OC5C(CO)OC(OC6CCC7(C)C(CCC8(C)C7CC=C7C9CC(C)(C)CCC9(C(=O)OC9OC(CO)C(O)C(O)C9OC9OCC(OC%10OCC(O)(CO)C%10O)C(O)C9O)C(O)CC78C)C6(C)C)C(O)C5O)OCC(O)C4O)C(O)C3O)C(O)C2O)C(OC(=O)/C=C/c2ccccc2)C(O)C1OC(C)=O` (configuration not stated), the inhibition is reported as inconclusive: 14%.
In the case of `O=C(NC1CC(=O)N(c2ccccc2)C1)c1ccc(Br)o1` (configuration not stated), the inhibition is reported as “inactive”.
In the case of `N[C@@H]1c2ccccc2C2(CCN(C(=O)c3ccc(CO)o3)CC2)[C@H]1O`, the inhibition is reported as “inactive”.
With `NC(=O)CCc1c[nH]c2ccccc12` the inhibition was “inactive”.
For `CCC(C)C(NC=C1C(=O)OC(C)(C)OC1=O)C(=O)O` (configuration not stated), the inhibition was inconclusive: 13%.
`COc1cccc(C(=O)N2CCN=C2SCc2cccnc2)c1` was tested, and the inhibition was “inactive”.
With `C=CCNC(=O)C(=O)NCc1ccccc1` the inhibition was inconclusive: 13%.
For `CCOc1ccc(C2CC(c3ccccc3Cl)n3ncnc3N2)cc1` (configuration not stated), the inhibition was inconclusive: 11%.
For `Cc1ccc(C2(O)CCN(C(=O)c3cnnn3-c3ccccc3)CC2)nc1`, the inhibition was inconclusive: 18%.
`O=C1N=C(O)CN1/N=C\c1ccc(-c2ccc([N+](=O)[O-])cc2)o1` was tested, and the inhibition was inconclusive: 18%.
For `CCCc1nnc([C@H]2CCN(Cc3ccc(CO)o3)C2)o1`, the inhibition was “inactive”.
In the case of `Cc1ccc(CN2CC[C@H](c3nnc(Cc4ccccc4)o3)C2)cc1`, the inhibition is reported as inconclusive: 12%.
With `CC(=O)N1CCC(N2CC[C@H](c3nnc(-c4ccc(Cl)cc4)o3)C2)CC1` the inhibition was “inactive”.
With `C=CCNc1ccccc1C(=O)NC1C(=O)Nc2cc(OC)ccc21` (configuration not stated) the inhibition was inconclusive: 17%.
With `COc1ccc(C(C)N(C)C(=O)/C=C/c2cnn(C)c2)cc1` (configuration not stated) the inhibition was “inactive”.
`COc1ccccc1C(=O)Nc1cc(C)ccc1OCc1cc(=O)n2oc(C)cc2n1` was tested, and the inhibition was “inactive”.
In the case of `CCOC(=O)c1ccc(CN(Cc2ccncc2)S(=O)(=O)c2ccc(C)cc2)cc1`, the inhibition is reported as “inactive”.
`COc1ccccc1-n1c(SCC(=O)N2CCCc3ccccc32)nc2c(c1=O)SCC2` was tested, and the inhibition was inconclusive: 10%.
For `O=C(Nc1cccc(F)c1)[C@@H]1C[C@@H]1c1ccccc1`, the inhibition was inconclusive: 12%.
For `CCOC(=O)c1cnn(Cc2nc(-c3sccc3C)oc2C)c1`, the inhibition was inconclusive: 14%.
With `COC(=O)C1CCN(C(=O)c2cc3c(=O)n4cccc(C)c4nc3n2C)CC1` the inhibition was “inactive”.
In the case of `COCc1noc(CCn2cnc3sc4c(c3c2=O)CCNC4)n1`, the inhibition is reported as inconclusive: 14%.
In the case of `CCCN(C(=O)CC1CCS(=O)(=O)C1)C1CCCC1` (configuration not stated), the inhibition is reported as inconclusive: 18%.
In the case of `Cc1ccc(S(=O)(=O)N2CCSC2c2ccccc2Cl)cc1[N+](=O)[O-]` (configuration not stated), the inhibition is reported as inconclusive: 19%.
`O=C(NCCc1ccc(F)cc1)c1cn(C2CCCC2)cc(C(=O)N2CCCCC2)c1=O` was tested, and the inhibition was inconclusive: 13%.
For `O=C1c2ccccc2NC2(C(=O)Nc3ccccc32)N1C1CCCCC1` (configuration not stated), the inhibition was inconclusive: 17%.
`O=Cc1cn(CC(=O)N2CCCC2)c2ccc(Br)cc12` was tested, and the inhibition was “inactive”.
For `CC1CCCC(NC(=O)CSc2cc(=O)n(C)c3cc(Cl)ccc23)C1C` (configuration not stated), the inhibition was “inactive”.
`O=C(c1cccc(N2CCNC2=O)c1)N1CCOC(Cc2ccc(F)cc2)C1` (configuration not stated) was tested, and the inhibition was inconclusive: 14%.
In the case of `Cc1cc2c(cc1C)C(c1ccc(Cl)cc1Cl)CC(=O)N2` (configuration not stated), the inhibition is reported as inconclusive: 13%.
For `COCCNC(=O)C[C@@H]1O[C@H](Cn2cc(CN(C)Cc3ccccc3)nn2)[C@@H](O)[C@H]1O`, the inhibition was inconclusive: 11%.
`CC1=CC[C@@H]2CN(Cc3cccc(OCCO)c3)C[C@@H]2C1` was tested, and the inhibition was inconclusive: 10%.
With `O=C1CCCC2=C1C(c1cccs1)n1nc(Cc3ccccc3)nc1N2` (configuration not stated) the inhibition was “inactive”.
For `COc1ccc(OC)c(-c2cc(C(=O)Nc3sc4c(c3C#N)CCC4)no2)c1`, the inhibition was “inactive”.
`CC(C)CCCC1CN(C(=O)C2CCN(C(=O)N(C)C)CC2)CCO1` (configuration not stated) was tested, and the inhibition was inconclusive: 14%.
`CC1=NN(C(=O)Cc2ccc([N+](=O)[O-])cc2)C(C)(O)C1` (configuration not stated) was tested, and the inhibition was “inactive”.
For `CCOc1ccc(C2C(C#N)=C(N)Oc3c2c(C)nn3-c2ccccc2)cc1` (configuration not stated), the inhibition was inconclusive: 23%.
For `CC1(C)CC(NC(=O)C(=O)Nc2ccc(C(C)(C)C)cc2)CC(C)(C)N1`, the inhibition was “inactive”.
With `CC(=C\c1ccccc1)/C=C1/SC(=Nc2ccccc2)NC1=O` the inhibition was inconclusive: 28%.
`COc1ccc(CCCC(=O)N2CCCC3(CN(C)C(=O)O3)C2)cc1` (configuration not stated) was tested, and the inhibition was inconclusive: 19%.
In the case of `CCCC(O)=C1C(=O)CC(C)(C)CC1=Nc1ccncc1`, the inhibition is reported as “inactive”.
With `CC(=O)N1c2c(cc(Br)cc2S(=O)(=O)N(C)Cc2ccccc2)CC1C` (configuration not stated) the inhibition was inconclusive: 16%.
`O=C(CSc1nc2ccc(NC(=O)c3cccc4ccccc34)cc2s1)NC1CC1` was tested, and the inhibition was “inactive”.
With `Cc1ccc(/C=C2\N=C(c3ccc(I)cc3)OC2=O)o1` the inhibition was active: 47%.
`Cc1ccc(C2=NNC3(CC4CC3C3CCCC43)S2)cc1` (configuration not stated) was tested, and the inhibition was inconclusive: 16%.
For `O=S(=O)(N[C@H]1C[C@@H]2CC[C@H]1C2)c1cccs1`, the inhibition was inconclusive: 15%.
With `CCc1nc(C)sc1C(=O)N1CCC(Cc2cccc(C(N)=O)c2)C1` (configuration not stated) the inhibition was inconclusive: 21%.
In the case of `O=c1[nH]c(Nc2ccccc2Cl)nnc1Cc1ccccc1`, the inhibition is reported as “inactive”.
`CCOC(=O)c1c(C)oc2cc(Br)c(OC(C)C(=O)OCC)cc12` (configuration not stated) was tested, and the inhibition was inconclusive: 14%.
For `O=[N+]([O-])c1cnc(-c2ccccc2)nc1`, the inhibition was inconclusive: 12%.
`O=C1C=C(NC2CCCC2)CC(c2ccccc2)C1` (configuration not stated) was tested, and the inhibition was inconclusive: 18%.
`O=C1c2ccccc2C(=O)N1C/C=C/CN1C(=O)c2ccccc2C1=O` was tested, and the inhibition was inconclusive: 10%.
In the case of `Cn1c(C(=O)Nc2ccccc2C(N)=O)cc2c(=O)n3ccccc3nc21`, the inhibition is reported as inconclusive: 10%.
In the case of `CCCCOc1ccc(/C=c2\sc3nc(-c4ccncc4)nn3c2=O)cc1OC`, the inhibition is reported as inconclusive: 15%.
With `CN(CC(=O)NC1CCCc2ccccc21)S(=O)(=O)c1ccc2c(c1)CCC(=O)N2` (configuration not stated) the inhibition was “inactive”.
In the case of `Nc1ccc(S(=O)(=O)Nc2nccc(/C=C/c3ccccc3F)n2)cc1`, the inhibition is reported as inconclusive: 12%.
`N#CC1=C(N)OC2=C(C(=O)CCC2)C1c1ccc(O)cc1` (configuration not stated) was tested, and the inhibition was inconclusive: 12%.
`CN(C)c1ccc(/C=C2\N=C(c3cccc(I)c3)OC2=O)cc1` was tested, and the inhibition was “inactive”.
For `COc1ccc(C(=O)Nc2ccc(C(C)C)cc2)cc1OC`, the inhibition was “inactive”.
In the case of `COc1ccccc1N1CCN([C@@H]2[C@H](O)[C@H](CO)O[C@@H]2CN(C)C)CC1`, the inhibition is reported as inconclusive: 10%.
With `CCOC(=O)c1ccc(NC(=O)CSc2ncnc3sc4c(c23)CCC4)cc1` the inhibition was inconclusive: 14%.
`O=C(C1CC1)N1CCc2cc(Br)cc(S(=O)(=O)N3CCC4(CC3)OCCO4)c21` was tested, and the inhibition was inconclusive: 15%.
For `COc1ccc(-n2nc3cc(C)c(NC(=O)c4cc(OC)c(OC)c(OC)c4)cc3n2)cc1`, the inhibition was inconclusive: 13%.
`C=CCSc1nnc2n(CC)c(=O)c3c(n12)-c1ccccc1CC31CCCCC1` was tested, and the inhibition was inconclusive: 28%.
For `CCCN1CCC(N(CC)Cc2ccccc2)CC1`, the inhibition was inconclusive: 17%.
For `O=C(Cc1cccs1)N1CCN(c2ccccc2)CC1`, the inhibition was inconclusive: 11%.
For `Cc1nnsc1CN(C)C(=O)CCc1c(C)nn(C)c1C`, the inhibition was inconclusive: 18%.
`COc1cccc(CC2CN(C(=O)CCc3cnccn3)CCO2)c1` (configuration not stated) was tested, and the inhibition was “inactive”.
For `OCc1cc2ccccc2nc1/C=C/c1ccccc1`, the inhibition was inconclusive: 15%.
With `COc1cccc(-c2ccc(C(=O)N3CCCn4cncc4C3)o2)c1` the inhibition was inconclusive: 11%.
For `Cn1nc(C(C)(C)C)c2c1NC(=O)CC2c1ccnn1-c1ccccc1` (configuration not stated), the inhibition was inconclusive: 13%.
`CC(NC1CSCCSC1)c1nc(-c2ccccn2)no1` (configuration not stated) was tested, and the inhibition was inconclusive: 10%.

— PubChem BioAssay AID1259354 (Paczesny and Yang Labs, IUPUI and University of Michigan, 2018)
